According to publication PMC12579238:

T1: CLN7 (human (endogenous in SH-SY5Y)) (UniProt Q8NHS3)
T1 sequence: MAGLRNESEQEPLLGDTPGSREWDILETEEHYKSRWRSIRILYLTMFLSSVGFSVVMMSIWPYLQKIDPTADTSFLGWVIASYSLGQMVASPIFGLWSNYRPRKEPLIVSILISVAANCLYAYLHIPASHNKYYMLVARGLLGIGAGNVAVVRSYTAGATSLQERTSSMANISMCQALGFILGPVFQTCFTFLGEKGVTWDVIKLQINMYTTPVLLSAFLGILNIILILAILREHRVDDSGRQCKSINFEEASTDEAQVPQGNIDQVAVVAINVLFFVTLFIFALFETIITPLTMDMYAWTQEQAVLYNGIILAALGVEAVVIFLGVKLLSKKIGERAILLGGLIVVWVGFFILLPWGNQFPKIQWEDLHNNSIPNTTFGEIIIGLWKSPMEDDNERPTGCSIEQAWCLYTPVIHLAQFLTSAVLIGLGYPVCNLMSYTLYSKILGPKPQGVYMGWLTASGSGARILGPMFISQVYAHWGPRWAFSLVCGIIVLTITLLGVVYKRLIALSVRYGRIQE

B1: MED23 (protein, UniProt Q9ULK4 1-1368)
chain: METQLQSIFEEVVKTEVIEEAFPGMFMDTPEDEKTKLISCLGAFRQFWGGLSQESHEQCIQWIVKFIHGQHSPKRISFLYDCLAMAVETGLLPPRLVCESLINSDTLEWERTQLWALTFKLVRKIIGGVDYKGVRDLLKVILEKILTIPNTVSSAVVQQLLAAREVIAYILERNACLLPAYFAVTEIRKLYPEGKLPHWLLGNLVSDFVDTFRPTARINSICGRCSLLPVVNNSGAICNSWKLDPATLRFPLKGLLPYDKDLFEPQTALLRYVLEQPYSRDMVCNMLGLNKQHKQRCPVLEDQLVDLVVYAMERSETEEKFDDGGTSQLLWQHLSSQLIFFVLFQFASFPHMVLSLHQKLAGRGLIKGRDHLMWVLLQFISGSIQKNALADFLPVMKLFDLLYPEKEYIPVPDINKPQSTHAFAMTCIWIHLNRKAQNDNSKLQIPIPHSLRLHHEFLQQSLRNKSLQMNDYKIALLCNAYSTNSECFTLPMGALVETIYGNGIMRIPLPGTNCMASGSITPLPMNLLDSLTVHAKMSLIHSIATRVIKLAHAKSSVALAPALVETYSRLLVYMEIESLGIKGFISQLLPTVFKSHAWGILHTLLEMFSYRMHHIQPHYRVQLLSHLHTLAAVAQTNQNQLHLCVESTALRLITALGSSEVQPQFTRFLSDPKTVLSAESEELNRALILTLARATHVTDFFTGSDSIQGTWCKDILQTIMSFTPHNWASHTLSCFPGPLQAFFKQNNVPQESRFNLKKNVEEEYRKWKSMSNENDIITHFSMQGSPPLFLCLLWKMLLETDHINQIGYRVLERIGARALVAHVRTFADFLVYEFSTSAGGQQLNKCIEILNDMVWKYNIVTLDRLILCLAMRSHEGNEAQVCYFIIQLLLLKPNDFRNRVSDFVKENSPEHWLQNDWHTKHMNYHKKYPEKLYFEGLAEQVDPPVQIQSPYLPIYFGNVCLRFLPVFDIVIHRFLELLPVSKSLETLLDHLGGLYKFHDRPVTYLYNTLHYYEMHLRDRAFLKRKLVHAIIGSLKDNRPQGWCLSDTYLKCAMNAREENPWVPDDTYYCRLIGRLVDTMAGKSPGPFPNCDWRFNEFPNPAAHALHVTCVELMALAVSGKEVGNALLNVVLKSQPLVPRENITAWMNAIGLIITALPEPYWIVLHDRIVSVISSPSLTSETEWVGYPFRLFDFTACHQSYSEMSCSYTLALAHAVWHHSSIGQLSLIPKFLTEVLLPIVKTEFQLLYVYHLVGPFLQRFQQERTRCMIEIGVAFYDMLLNVDQCSTHLNYMDPICDFLYHMKYMFTGDSVKEQVEKIICNLKPALKLRLRFITHISKMEPAAVPPQAMNSGSPAPQSNQVPVSLPVTQ
B2: MYBBP1A (protein, UniProt Q9BQG0 1-1328)
chain: MESRDPAQPMSPGEATQSGARPADRYGLLKHSREFLDFFWDIAKPEQETRLAATEKLLEYLRGRPKGSEMKYALKRLITGLGVGRETARPCYSLALAQLLQSFEDLPLCSILQQIQEKYDLHQVKKAMLRPALFANLFGVLALFQSGRLVKDQEALMKSVKLLQALAQYQNHLQEQPRKALVDILSEVSKATLQEILPEVLKADLNIILSSPEQLELFLLAQQKVPSKLKKLVGSVNLFSDENVPRLVNVLKMAASSVKKDRKLPAIALDLLRLALKEDKFPRFWKEVVEQGLLKMQFWPASYLCFRLLGAALPLLTKEQLHLVMQGDVIRHYGEHVCTAKLPKQFKFAPEMDDYVGTFLEGCQDDPERQLAVLVAFSSVTNQGLPVTPTFWRVVRFLSPPALQGYVAWLRAMFLQPDLDSLVDFSTNNQKKAQDSSLHMPERAVFRLRKWIIFRLVSIVDSLHLEMEEALTEQVARFCLFHSFFVTKKPTSQIPETKHPFSFPLENQAREAVSSAFFSLLQTLSTQFKQAPGQTQGGQPWTYHLVQFADLLLNHSHNVTTVTPFTAQQRQAWDRMLQTLKELEAHSAEARAAAFQHLLLLVGIHLLKSPAESCDLLGDIQTCIRKSLGEKPRRSRTKTIDPQEPPWVEVLVEILLALLAQPSHLMRQVARSVFGHICSHLTPRALQLILDVLNPETSEDENDRVVVTDDSDERRLKGAEDKSEEGEDNRSSESEEESEGEESEEEERDGDVDQGFREQLMTVLQAGKALGGEDSENEEELGDEAMMALDQSLASLFAEQKLRIQARRDEKNKLQKEKALRRDFQIRVLDLVEVLVTKQPENALVLELLEPLLSIIRRSLRSSSSKQEQDLLHKTARIFTHHLCRARRYCHDLGERAGALHAQVERLVQQAGRQPDSPTALYHFNASLYLLRVLKGNTAEGCVHETQEKQKAGTDPSHMPTGPQAASCLDLNLVTRVYSTALSSFLTKRNSPLTVPMFLSLFSRHPVLCQSLLPILVQHITGPVRPRHQACLLLQKTLSMREVRSCFEDPEWKQLMGQVLAKVTENLRVLGEAQTKAQHQQALSSLELLNVLFRTCKHEKLTLDLTVLLGVLQGQQQSLQQGAHSTGSSRLHDLYWQAMKTLGVQRPKLEKKDAKEIPSATQSPISKKRKKKGFLPETKKRKKRKSEDGTPAEDGTPAATGGSQPPSMGRKKRNRTKAKVPAQANGTPTTKSPAPGAPTRSPSTPAKSPKLQKKNQKPSQVNGAPGSPTEPAGQKQHQKALPKKGVLGKSPLSALARKKARLSLVIRSPSLLQSGAKKKAQVRKAGKP
B3: MYEF2 (protein, UniProt Q9P2K5 1-600)
chain: MADANKAEVPGATGGDSPHLQPAEPPGEPRREPHPAEAEKQQPQHSSSSNGVKMENDESAKEEKSDLKEKSTGSKKANRFHPYSKDKNSGAGEKKGPNRNRVFISNIPYDMKWQAIKDLMREKVGEVTYVELFKDAEGKSRGCGVVEFKDEEFVKKALETMNKYDLSGRPLNIKEDPDGENARRALQRTGGSFPGGHVPDMGSGLMNLPPSILNNPNIPPEVISNLQAGRLGSTIFVANLDFKVGWKKLKEVFSIAGTVKRADIKEDKDGKSRGMGTVTFEQAIEAVQAISMFNGQFLFDRPMHVKMDDKSVPHEEYRSHDGKTPQLPRGLGGIGMGLGPGGQPISASQLNIGGVMGNLGPGGMGMDGPGFGGMNRIGGGIGFGGLEAMNSMGGFGGVGRMGELYRGAMTSSMERDFGRGDIGINQGFGDSFGRLGSAMIGGFAGRIGSSNMGPVGSGISGGMGSMNSVTGGMGMGLDRMSSSFDRMGPGIGAILERSIDMDRGFLSGPMGSGMRERIGSKGNQIFVRNLPFDLTWQKLKEKFSQCGHVMFAEIKMENGKSKGCGTVRFDSPESAEKACRIMNGIKISGREIDVRLDRNA

Target: T1, CLN7 (human (endogenous in SH-SY5Y))
Test: affinity purification with mass spectrometry; endogenous CLN7 immunoprecipitated from 2.5 mg SH-SY5Y lysate with a polyclonal anti-CLN7 antibody raised against L9 (351-421aa, Proteintech) on G-sepharose beads; IgG as non-specific binding control; 4 independent replicates; cells under steady state culture conditions

| Binder | binding |
| --- | --- |
| B1 | binds |
| B2 | binds |
| B3 | binds |

No constants are given. Whether binding was seen depends on the method and setting. In cells and extracts the contact can be indirect. Here binding means that the protein was enriched with, or labelled near, the bait; the list need not be complete.
